PubChem BioAssay AID540256 (National Center for Advancing Translational Sciences (NCATS), 2011)
Values joined by “and” are separate entries in the source; they are usually repeats but may differ in a detail not shown here. Equal values may be shown once. Among all 300,000 compounds or so, about 3,700 (1.2%) were called active. This list was built around the results that the source calls inconclusive (neither active nor inactive); the mix of calls is not that of the screen. The call rests on the fitted dose curve; tested in HEK293 cells. Potencies of inconclusive entries are doubtful fits and often do not repeat.

test: qHTS for Inhibitors of binding or entry into cells for Lassa Virus; conditions: Lassa virus pseudotype entry inhibition, cell reporter; activity change, negative = inhibition: at 37.9 µM (top of the series) unless noted; further: nearly all actives have a fitted effect of over 50% in size
On the % scale 0 is the no-effect control and ±100 the full control effect; potency means the concentration at half of the fitted maximal effect.

Which Potency does the source give for O=C(O)CSc1cc(NS(=O)(=O)c2ccc(Cl)cc2)c2ccccc2c1O here?
Its Potency is inconclusive: 15.8 µM [inhibitor, single point].

For CN(C)S(=O)(=O)c1ccc(C(=O)Nc2nc(-c3ccccc3)c(C(=O)c3ccccc3)s2)cc1, which “activity change, negative = inhibition” value is on record?
The value was inactive: -4.24%.

With Nc1c(N(Cc2ccco2)C(=O)c2ccc(Cl)cc2)c(=O)[nH]c(=O)n1Cc1ccccc1 as the compound, how does the “activity change, negative = inhibition” value read?
Its value is inactive: -1.78%.

Which “activity change, negative = inhibition” value does the source give for Cc1ccccc1-n1c(SCc2cccc(F)c2)nc2[nH]ncc2c1=O here?
Its value is inactive: -15.4%.

With CCC1(c2ccc(N)cc2)CCC(=O)NC1=O (stereo not drawn) as the compound, how does the Potency read?
The Potency was inconclusive: 2.06 µM [inhibitor, partial curve, poor fit].

Which Potency does the source give for Cc1nn(-c2ncc(C(F)(F)F)cc2Cl)c(=O)n1-c1ccccc1 here?
The Potency was inconclusive: 0.411 µM [activator, partial curve, poor fit].

With COCCNc1nc(-c2cc3ccccc3o2)cs1 as the compound, how does the Potency read?
Its Potency is active: 3.98 µM.

With O=C(COc1ccccc1[N+](=O)[O-])Nc1ccc(-c2nc3ccccc3s2)cc1 as the compound, how does the Potency read?
Its Potency is inconclusive: 3.98 µM [activator, single point].

With Cc1cc(C)cc(NC(=O)c2cccc3c2C(=O)N(C2CCCCC2)C3)c1 as the compound, how does the “activity change, negative = inhibition” value read?
The value was inactive: 1.51% [at 46.1 µM].

With COc1ccc(/C=N/n2c(-c3ccccc3)n[nH]c2=S)cc1 as the compound, how does the Potency read?
Its Potency is inconclusive: 7.08 µM [inhibitor, partial curve].

With COc1ccc(CCNC(=O)c2ccc3c(c2)N(Cc2ccc(F)cc2)CCS3)cc1OC as the compound, how does the Potency read?
The Potency was inconclusive: 14.1 µM [inhibitor, single point] and inconclusive: 31.6 µM [inhibitor, single point].

For Cc1ccc(S(=O)(=O)N(Cc2cc3ccccc3[nH]c2=O)CC2CCCO2)cc1 (stereo not drawn), which Potency is on record?
The Potency was inconclusive: 20.6 µM [inhibitor, single point].

For CCOCCCNC(=O)C(c1ccc(C)cc1)N(Cc1ccc2c(c1)OCO2)C(=O)c1cnccn1 (stereo not drawn), which Potency is on record?
Its Potency is inconclusive: 5.8 µM [activator, partial curve, poor fit].

For CCc1nn(CC(=O)NCc2ccccc2Cl)c(=O)c2cccn12, which Potency is on record?
Its Potency is inconclusive: 7.94 µM [activator, partial curve].

For O=C(NCC1CCCO1)[C@@H]1CSC2c3ccccc3C(=O)N21 (stereo partly drawn), which Potency is on record?
The Potency was inconclusive: 14.1 µM [activator, partial curve, poor fit].

With CN(c1cc(Cl)c2c(c1)OCO2)c1cc2c(c3c1ccn3C)C1CCC2C1 (stereo not drawn) as the compound, how does the Potency read?
Its Potency is inconclusive: 0.0281 µM [activator, full curve, poor fit].

Which “activity change, negative = inhibition” value does the source give for Cc1ccc(-n2nc(C(=O)N3CCN(c4cc(Cl)ccc4C)CC3)c3c4ccccc4n(C)c3c2=O)cc1 here?
The value was inactive: 5.4% [at 46.1 µM].

Which Potency does the source give for Cc1ccc(Cl)cc1-n1ncc2c(Nc3cccc(C)c3C)ncnc21 here?
The Potency was inconclusive: 35.5 µM [inhibitor, single point].

For CC(CNC(=O)C(=O)NC(C)CCc1ccccc1)Cc1ccccc1 (stereo not drawn), which Potency is on record?
Its Potency is inconclusive: 14.6 µM [inhibitor, partial curve, poor fit].

With O=C(c1ccc(CSc2nc3ccncc3n2Cc2ccccc2)cc1)N1CCCCCC1 as the compound, how does the “activity change, negative = inhibition” value read?
Its value is inactive: -2.31% [at 46.1 µM].

For Cc1ccc2cccc(S(=O)(=O)n3nc(C)cc3C)c2n1, which “activity change, negative = inhibition” value is on record?
The value was inactive: -15.3%.

Which “activity change, negative = inhibition” value does the source give for COc1ccccc1N(C)S(=O)(=O)c1ccc(C(=O)OCC(=O)Nc2cc(C)on2)cc1 here?
The value was inactive: -10.7%.

Which Potency does the source give for O=C(COC(=O)C1(c2ccccc2F)CCCC1)NCc1cccs1 here?
The Potency was inconclusive: 8.91 µM [inhibitor, partial curve, poor fit].

Which Potency does the source give for O=S(=O)(c1ccccc1)c1nc(NCc2cccnc2)sc1Cl here?
Its Potency is inconclusive: 12.6 µM [inhibitor, single point].

With Cc1ccc(C2c3[nH]c4ccccc4c3CCN2C(=O)CCC2CCCC2)cc1 (stereo not drawn) as the compound, how does the Potency read?
The Potency was inconclusive: 2.82 µM [inhibitor, full curve, poor fit].

With O=S(=O)(Nc1ccc2c(c1)OCO2)c1cccc(Br)c1 as the compound, how does the “activity change, negative = inhibition” value read?
The value was inactive: 7.33%.

With COc1ccc(CNC(=O)c2ccc(CS(=O)Cc3ccccc3Cl)o2)cc1 (stereo not drawn) as the compound, how does the Potency read?
Its Potency is inconclusive: 31.6 µM [inhibitor, single point].

Which Potency does the source give for O=C(NCc1ccco1)c1ccc2c(c1)N(Cc1ccccc1)C(=O)CS2 here?
The Potency was inconclusive: 35.5 µM [inhibitor, single point].

Which Potency does the source give for CN1CCN(NC(=O)c2cc(-c3ccc(Br)s3)nc3ccccc23)CC1 here?
The Potency was inconclusive: 35.5 µM [inhibitor, single point].

Which Potency does the source give for O=C(CCc1ccccc1)N/N=C/c1cc(Br)ccc1O here?
Its Potency is inconclusive: 2.82 µM [inhibitor, full curve, poor fit].

With CC1=NN(C(=O)c2ccco2)C(O)(c2ccccc2)C1 (stereo not drawn) as the compound, how does the Potency read?
The Potency was inconclusive: 15.8 µM [inhibitor, single point].

With Cc1ccc(Nc2cc(C)nc3c(C)ccc([N+](=O)[O-])c23)cc1 as the compound, how does the Potency read?
The Potency was inconclusive: 25.1 µM [inhibitor, single point].

For COc1ccc(-c2csc(NCc3ccco3)n2)cc1, which Potency is on record?
Its Potency is inconclusive: 35.5 µM [inhibitor, single point].

For Cc1ccc(C(C(=O)NC(C)(C)C)N(CC2CCCO2)C(=O)c2csnn2)cc1 (stereo not drawn), which “activity change, negative = inhibition” value is on record?
Its value is inactive: 8.78% [at 46.1 µM].

Which Potency does the source give for Clc1ccc(C2=Nn3c(nnc3-c3cc(-c4ccccc4)n[nH]3)SC2)cc1 here?
The Potency was inconclusive: 9.2 µM [inhibitor, partial curve, poor fit].

For COc1cc2c(cc1NC(=O)c1cncc(Br)c1)oc1ccccc12, which “activity change, negative = inhibition” value is on record?
The value was inactive: -14.6%.

For O=C(CSc1nc2[nH]ncc2c(=O)[nH]1)Nc1ccc(OC(F)(F)F)cc1, which “activity change, negative = inhibition” value is on record?
The value was inactive: 16.1%.

For CCCNC(=O)CCSc1nc(-c2ccc3c(c2)OCO3)cc(C(F)(F)F)n1, which “activity change, negative = inhibition” value is on record?
The value was inactive: -9.55% [at 46.1 µM].

For CCOc1ccc(S(=O)(=O)Nc2nc3ccccc3nc2Nc2ccc(OC)cc2)cc1, which “activity change, negative = inhibition” value is on record?
The value was inactive: 25.2% [at 46.1 µM].

Which Potency does the source give for O=C(NCCc1ccccc1)c1cnc(Cl)c(Cl)c1 here?
Its Potency is inconclusive: 35.5 µM [activator, single point].

For COC(CNc1nc(SC)nc2sc3c(c12)CCN(C)C3)OC, which “activity change, negative = inhibition” value is on record?
The value was inactive: -4.96%.

For CCC(=O)N(Cc1ccco1)c1nc(-c2ccc(OC)cc2)cs1, which Potency is on record?
Its Potency is inconclusive: 14.1 µM [inhibitor, single point].

With Cc1ccccc1OCC(=O)Nc1nnc(-c2ccncc2)s1 as the compound, how does the “activity change, negative = inhibition” value read?
The value was inactive: -1.29% [at 46.1 µM].

With Cc1ccc2nc(-c3cccnc3)c(Nc3ccccc3C)n2c1 as the compound, how does the Potency read?
Its Potency is inconclusive: 22.4 µM [inhibitor, single point].

For COc1cccc(NC(=O)CCN2CCN(c3ccccc3F)CC2)c1, which “activity change, negative = inhibition” value is on record?
Its value is inactive: -21.2%.

Which Potency does the source give for COc1ccccc1C1CCCN1Cc1nc(-c2ccc(C)s2)oc1C (stereo not drawn) here?
Its Potency is active: 3.55 µM.

Which “activity change, negative = inhibition” value does the source give for O=c1c(S(=O)(=O)c2cccc(Cl)c2)cn(Cc2ccccc2)c2cc(N3CCOCC3)c(F)cc12 here?
Its value is inactive: -13.7% [at 46.1 µM].

For CCc1ccccc1S(=O)(=O)Cc1ccc(C(=O)NCC2CCCO2)o1 (stereo not drawn), which “activity change, negative = inhibition” value is on record?
The value was inactive: -5.98%.

For CCCCNC(=O)c1cc2nc3c(c(C(F)(F)F)n2n1)CCc1ccccc1-3, which “activity change, negative = inhibition” value is on record?
Its value is inactive: 14.1%.

For Cc1onc(-c2ccccc2)c1-c1ccnn1C(=O)NC(C)C, which Potency is on record?
The Potency was inconclusive: 2 µM [inhibitor, partial curve, poor fit].

For CCN(CC(=O)NCc1ccc(F)cc1)C(=O)/C=C/c1ccc(OC)c(S(=O)(=O)NC(C)C)c1, which Potency is on record?
The Potency was inconclusive: 3.98 µM [inhibitor, full curve, poor fit].

Which Potency does the source give for O=C(NC1CCCC1)C(c1ccccc1)N(C(=O)c1ccno1)c1ccccc1 (stereo not drawn) here?
The Potency was inconclusive: 1.12 µM [activator, single point].

With Nc1c(Br)cc2oc(-c3ccccc3)nc2c1Br as the compound, how does the Potency read?
Its Potency is inconclusive: 2.82 µM [activator, single point].

Which Potency does the source give for Cc1ccccc1N(C(=O)c1snc(C(N)=O)c1N)C(C(=O)NCc1ccccc1)c1ccc(O)cc1 (stereo not drawn) here?
Its Potency is inconclusive: 2.51 µM [inhibitor, partial curve, poor fit].

Which Potency does the source give for Cc1cc(C)c(C)c(C(=O)CSc2nnc(-c3ccc4[nH]c(C)c(C)c4c3)o2)c1C here?
Its Potency is inconclusive: 15.8 µM [inhibitor, partial curve].

With CC1(C)NC(=O)N(CCCCOc2ccc3ccccc3c2Cl)C1=O as the compound, how does the Potency read?
The Potency was inconclusive: 29.1 µM [inhibitor, single point].

For Cc1ccnc(SCc2nc3ccccc3s2)n1, which Potency is on record?
The Potency was inconclusive: 29.1 µM [inhibitor, single point].

For O=C(NCc1ccco1)c1ccc2c(c1)OCCO2, which Potency is on record?
Its Potency is inconclusive: 7.08 µM [activator, full curve, poor fit].

With NS(=O)(=O)c1ccc(N=Nc2c(=O)[nH]c3ccc4[nH]cccc4c23)cc1 as the compound, how does the Potency read?
Its Potency is active: 0.628 µM.

For CCN(CC)c1ccc(NC(=O)Cn2nc(C)n3cccc3c2=O)c(C)c1, which “activity change, negative = inhibition” value is on record?
Its value is inactive: -3.9% [at 46.1 µM].

With CC(=O)c1cccc(NC(=O)N2CCCC2C(=O)NCc2ccc3c(c2)OCO3)c1 (stereo not drawn) as the compound, how does the “activity change, negative = inhibition” value read?
The value was inactive: 7.15% [at 46.1 µM].

With O=C(Nc1ccc(O)cc1)c1cccc(Oc2ccc([N+](=O)[O-])cc2)c1 as the compound, how does the Potency read?
Its Potency is inconclusive: 16.4 µM [inhibitor, single point].

With CCOC(=O)c1c(C)n(C)c2ccc(OCC(O)Cn3c(C)nc4ccccc43)cc12 (stereo not drawn) as the compound, how does the Potency read?
Its Potency is inconclusive: 29.1 µM [inhibitor, single point].

For CC(=O)Nc1cccc(/C(C)=N/NC(=O)c2c(-c3ccccc3Cl)noc2C)c1, which Potency is on record?
The Potency was inconclusive: 23.1 µM [inhibitor, partial curve, poor fit].

For CN(CCCC1CCCC1)C(=O)c1cc(COc2c(F)cccc2F)on1, which Potency is on record?
Its Potency is inconclusive: 15.8 µM [inhibitor, partial curve, poor fit].

With COc1ccc2ncc3c(-c4ccc(C)c(C)c4)nn(CC(=O)NC4CCCC4)c3c2c1 as the compound, how does the Potency read?
Its Potency is inconclusive: 8.91 µM [activator, single point].

For CCC(=O)NC(=S)Nc1ccc(-c2nc3ccccc3s2)cc1, which “activity change, negative = inhibition” value is on record?
Its value is inactive: -16.6%.

Which Potency does the source give for COc1cc(OC)cc(C(=O)NCCOC23CC4CC(CC(C4)C2)C3)c1 here?
The Potency was inconclusive: 35.5 µM [inhibitor, single point].
